The source of these data is paper PMC7160150, “Transcriptional repression of GIF1 by the KIX-PPD-MYC repressor complex controls seed size in Arabidopsis”.

By UniProt entry, the sequences of proteins in these tests, tags left out.
UniProt Q7XA73: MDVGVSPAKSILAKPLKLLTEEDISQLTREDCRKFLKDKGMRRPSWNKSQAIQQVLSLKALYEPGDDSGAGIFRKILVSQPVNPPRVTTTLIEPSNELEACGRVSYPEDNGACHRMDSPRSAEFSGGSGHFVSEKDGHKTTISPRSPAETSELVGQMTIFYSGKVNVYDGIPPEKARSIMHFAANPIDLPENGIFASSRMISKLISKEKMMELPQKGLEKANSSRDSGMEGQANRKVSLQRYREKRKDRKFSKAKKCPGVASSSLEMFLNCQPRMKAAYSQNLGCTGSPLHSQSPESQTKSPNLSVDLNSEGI
UniProt Q8GY55: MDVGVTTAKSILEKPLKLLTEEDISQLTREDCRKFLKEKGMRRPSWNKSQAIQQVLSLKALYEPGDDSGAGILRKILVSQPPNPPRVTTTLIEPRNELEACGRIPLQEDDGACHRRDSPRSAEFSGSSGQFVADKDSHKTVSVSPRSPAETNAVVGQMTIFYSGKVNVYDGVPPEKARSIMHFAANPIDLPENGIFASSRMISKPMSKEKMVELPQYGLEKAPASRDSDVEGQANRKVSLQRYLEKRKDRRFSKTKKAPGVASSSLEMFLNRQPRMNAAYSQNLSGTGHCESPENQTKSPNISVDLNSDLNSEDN

The assay concerns the target His-KIX8 (Arabidopsis thaliana (Col-0)). The experiment in a line: pull-down; His-KIX8 incubated with GST-MYC3 or GST-MYC4 and MBP-PPD1 or MBP-PPD2 (E. coli proteins obtained by sonication), 4 °C 1 h; pulled down with Ni-NTA agarose; blot with anti-GST, anti-MBP and anti-His.

Results are given in words; binding and its absence hold for the method and conditions named. Binding seen in cells or lysates may run through a third protein. Binding calls can cover weak binding; strength is not graded here.

Regarding MBP-PPD1 (from UniProt Q7XA73 1-313), the binding result is “binds”. For MBP-PPD2 (from UniProt Q8GY55 1-315), the binding entry is given as “binds”.
